The experiment in a line: Confirmation Concentration-Response Assay for Agonists of the Thyroid Stimulating Hormone Receptor. To be noted: HEK293 TSHR-CNG cells, membrane potential dye, cAMP; measured here: parental HEK293 counter-screen max. An excerpt:
NIH Chemical Genomics Center [NCGC] NIH Molecular Libraries Screening Centers Network [MLSCN] MLSCN Grant: 1 X01 MH080680-01 PI Name: Dr. Marvin Gershengorn, NIH NCGC Assay Overview: Thyroid Stimulating Hormone Receptor TSH is an alpha/beta heterodimeric glycoprotein hormone secreted from the anterior pituitary gland which belongs to the glycoprotein hormone family. The actions of TSH are mediated by a seven-transmembrane receptor, which upon TSH binding couples preferentially to the G-alpha (s) protein (Gs), resulting in activation of adenylate cyclase and increase in cyclic adenosine 3', 5' monophosphate (cAMP). The TSH receptor (THSR) is mainly expressed in thyroid follicular cells and regulates their growth and function. […]
NCGC Assay Protocol Summary: High Throughput Screening. […] 23 nl/well compound or control was then added to the assay plates, which were incubated for additional 30 min before reading a Envision fluorescence plate reader (Perkin Elmer) in bottom-read mode for fluorescence intensity (emission at 590 nm). Keywords: Thyroid-stimulating hormone TSH, TSHR, TSHR agonist, quantitative high throughput screening, qHTS, HTS, probe identification, CNG, cAMP, cyclic nucleotide gated ion channel PubChem
For orientation: Counterscreens check selectivity or assay interference.

Molecules are shown by their SMILES. The list shows a part of the results.

Turning to `Cc1nn(-c2ccccc2)c2c1P(=O)(N1CCOCC1)N(C)C(c1ccccc1)=N2` (stereo unspecified), the max response was -3.63%.

These data come from PubChem BioAssay AID939 (National Center for Advancing Translational Sciences (NCATS), 2007).
